Results from one PubChem assay

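Luminescence from an EWS-FLI1 target-promoter (NR0B1) reporter, set against a CMV-promoter reporter, two days after silencing single genes in TC32 Ewing sarcoma cells.
Each siRNA was applied at 20 nM.
A z-score of the log NR0B1-over-CMV signal, less the median of siRNAs with the same seed; more negative means a stronger specific loss of the NR0B1 reporter.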

The strongest results of the screen are mostly left out here.
Sequences are the guide (antisense) strand, without overhang.

| strand | target gene | seed-corrected z-score |
|---|---|---|
| `AAAGUUGGUGGUGCGGUGC` | EN1 | -0.9777 |
| `AUUCGUACAAGAUGAUGCG` | TMC4 | -1.017 |
| `AAUCUCAUAAGCAUCACGG` | PEX11B | -0.5436 |
| `UUCUUUACGUAAUUGAUUU` | FRG1JP | 1.019 |
| `UAUUGAAUACUGUAGCAGC` | SPESP1 | 1.634 |
| `AUUCUCUCCAUAAUAGAUC` | RNF170 | 0.3299 |
| `UUGUCCUCGAUCACAAUGC` | HCN2 | 0.9851 |
| `UGCAUAGCCAUGCUUAGGG` | GTF2H2C_2 | -0.7973 |
| `UCGUCGAACAAAGUCAUGC` | TAOK3 | -0.2563 |
| `UAAAGUCCUCUCUGAUUCC` | PM20D2 | 0.1258 |
| `UCUGAACCAACAUUCCUCC` | DHRS12 | 0.09128 |
| `UUCAGUCUGAGGGUAUUGU` | NMUR1 | 0.1484 |
| `UAUCCUAUCAAAAUAACCG` | LOC646804 | 0.02852 |
| `UACAGUUCCAUCACUGCUC` | MDP1 | 1.112 |
| `UUCCGUGUAGAAGAGGUCC` | RASGRP4 | 0.4094 |
| `UCUAGUCAGUGCAUCUUCC` | DNAJC1 | -0.108 |
| `AUCACUAUACAUCUGUUCC` | CACUL1 | 0.3687 |
| `UUCUGUCUUAUACUCGUUG` | PITPNM2 | -0.1235 |
| `UUGAGAUUCAUGAACCUUC` | ZIC3 | 0.2987 |
| `UGGAUAAACACUGCGGUAC` | VEZT | -1.686 |
| `UGCUUGUCAAGUCCACACG` | OBSCN | -0.4731 |
| `AUAGAGAAAGUAAUGGUGG` | LINC00607 | -1.321 |
| `UAUGUUAACACCAAAUAGG` | DIRAS1 | 0.1624 |
| `AGAAAGUCCAGUCAGACUC` | GORASP2 | -0.3305 |
| `AAUCAAUCCAUCUUGCUCC` | NUP205 | 0.5562 |
| `UGAUGUUCAGUGUCUGCCG` | SLC6A18 | -1.16 |
| `UACUUUAUCAGGGAGAAGA` | SLC6A13 | -0.4627 |
| `UUUAUAGGAUGGUUCUUCC` | WDR78 | 1.808 |
| `UGAUCAAUCAUACUCAGGC` | PRDM16 | -0.6368 |
| `UUGUUUAGCGGUGUGCUGC` | GRHL1 | -0.8364 |
| `UCAUAGUAAAGUAAUAGGG` | LOC729324 | 0.3683 |
| `AUCGUAAUUAAUUACACUG` | TENM1 | 0.2848 |
| `UCACGUAAAACACUAGCCC` | DYNC1LI2 | -0.3248 |
| `UUGUGAUGAACCAAGAGGC` | UMOD | 0.009589 |
| `UUACGAUUCAGGAUCAAAG` | PER3 | -0.9622 |
| `UCCUGUUUAAGCUGGAGAC` | SIRT6 | 0.2747 |
| `UCAAUUGGAUGCAUCAGCC` | DEF6 | -0.1502 |
| `UUAUUCGUAGAAUUUGUCC` | FOCAD | 0.5334 |
| `AAGGUAACCUGAGAGGAGC` | TBC1D22A | 0.1929 |
| `AGUCUUUCUUGCAUGUUUG` | IFNW1 | -0.9745 |
| `UAAGGUAACUUUACUCAGA` | RAMP3 | -0.2185 |
| `UCGCUGACAAGUUUUACAC` | WT1 | -0.1768 |
| `UUCAUAUCAUCGUUUGUCU` | VASN | -0.8291 |
| `UGCAUGACAAGUAUAGUUC` | IL1R1 | 1.083 |
| `UAAGAUCAUUGGACGAUUG` | PCDHB1 | -0.3828 |
| `UAUGGGCCUUGCCUGACCU` | LOC649238 | -0.8019 |
| `UGUACAACGAGUGUCUUGC` | WSCD1 | 0.7178 |
| `UUCAGGUCACCGUAGAUGG` | AARS | -0.2425 |
| `UGUGGAUUAGGCAUGAUCC` | HSD17B7 | 0.6853 |
| `UCUGUGCUAACUUUUGCGU` | C10orf67 | 0.4995 |
| `UACGAAUCCUUGUAGUUGC` | GDAP1 | 0.5214 |
| `UCGGUCUCAGUUCCAAUCC` | SLC25A32 | 0.2269 |
| `UUUGAUAUGUUGAACUUGC` | LYZL6 | 0.08775 |
| `UCUACGUCUUCUUAAUUCC` | DSCC1 | -0.04026 |
| `UUCUGGUUCAUAGAUUAGG` | ERICH2 | -0.9822 |
| `UCUCUAGUUUCAUAUAUCC` | TMEM200A | 1.062 |
| `UCUUUCACAAUGAUUCUUU` | PARVA | 0.03801 |
| `AAGUGUACCGGUCCAACAG` | ZNF692 | 0.5527 |
| `AUAUGAAUUCUUGAAAGUC` | S100A12 | -1.137 |
| `AUAUCGCACAUAAUGAAGU` | TMSB15B | -0.354 |
| `AAUGAUGUGAGGGUGGUUG` | NUAK2 | -0.3555 |
| `UAGGAGAAUAGGCAGGAGC` | FAM168B | -0.01173 |
| `UUCAGAUCCACAGUGGUGA` | CLIC5 | 0.4551 |
| `UCUCAUGUAAACAAACUGG` | SLC13A5 | -0.8581 |
| `AUUGCGAUAACCACCUUCG` | SEC16B | -0.213 |
| `AAUCCUUCGCUAUUUGUUC` | MIER2 | -0.2533 |
| `UUAGUAGUGAGCCCAUCCA` | PELI2 | -0.9403 |
| `UCUUUUAGGAGCACAUUUC` | CCDC160 | 0.01264 |
| `UAUCACCAAAUCGAUAGGC` | MEIS1 | -0.1748 |
| `UUGAUAUCUGCGAGGGUCC` | ASXL3 | -0.4419 |
| `UUUGGUUUCUUGUUCCAGC` | METTL17 | -0.05023 |
| `UUUUCCAAAACACGACUCC` | SHPK | -0.435 |
| `UUGUUGUUCAGCAUCAAGC` | LRRN1 | 0.8912 |
| `UAGUCUUCCACACGCAUAU` | NDUFB8 | -0.2978 |
| `UCUUGGUCUAUUAACUCCG` | FAR1 | -0.4723 |
| `UCAUAGGGAAUUUUCGUCC` | SLC46A3 | 1.53 |
| `UCUCCUUGGUCGUUGAUCU` | EVPLL | 1.423 |

Repeated from the top, 7 entries:

strand	target gene	seed-corrected z-score
AAAGUUGGUGGUGCGGUGC	EN1	-0.9777
AUUCGUACAAGAUGAUGCG	TMC4	-1.017
AAUCUCAUAAGCAUCACGG	PEX11B	-0.5436
UUCUUUACGUAAUUGAUUU	FRG1JP	1.019
UAUUGAAUACUGUAGCAGC	SPESP1	1.634
AUUCUCUCCAUAAUAGAUC	RNF170	0.3299
UUGUCCUCGAUCACAAUGC	HCN2	0.9851

The results are deposited in PubChem (AID1159506; NCATS, 2015).